Experimental data: PubChem BioAssay AID1487 (National Center for Advancing Translational Sciences (NCATS), 2009)
The other results are listed elsewhere or left out. Further columns of the screen follow, without active or inactive calls. Most of these compounds were active or inconclusive in the main read-out, so they are no random draw. Words in brackets tell the shape of the fitted curve; partial curves, single points and poor fits give uncertain potencies.

Experiment: qHTS Assay for Modulators of Lamin A Splicing
Conditions: HeLa LMNA splicing GFP/RFP minigene ratio, 48 h
Method in brief: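 S3 HeLa stable clones carrying a lamin A-EGFP splicing minigene plus DsRed2 were seeded at 600 cells/well in Opti-MEM with 2% FBS, pin-dosed and incubated 48 h at 37°C. Acumen cytometry (488 nm) gave the GFP/RFP total-intensity ratio.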

[1] = measured here: GFP splicing reporter channel
[2] = measured here: RFP viability control channel

SMILES | AC50 [1] | AC50 [2]
Cc1cccc(N2CCN(S(=O)(=O)c3cn(C)c(C)n3)CC2)c1C | 22.4 µM [falling, partial curve, poor fit] | 
Cc1cc(CNC(=O)c2ccc(C)c([N+](=O)[O-])c2)c2ccccc2n1 | 0.447 µM [falling, full curve, poor fit] | 
Cc1ccc(SCCNC(=S)Nc2ccccc2)cc1 | 12.6 µM [rising, partial curve] | 35.5 µM [rising, single point]
Cc1ccc(-n2nc(C(=O)N3CCN(c4ccc(F)cc4)CC3)c(=O)n(C)c2=O)cc1 | 7.94 µM [rising, partial curve, poor fit] | 
CC1(C)CC2CC(C)(CN2S(=O)(=O)c2ccc(C(=O)Nc3cc(S(=O)(=O)N4CCOCC4)ccc3Cl)cc2)C1 (configuration not stated) | 5.62 µM [rising, partial curve] | 12.6 µM [rising, partial curve]
O=C(CCNc1ccc(Cl)cc1)c1cccs1 |  | 12.6 µM [rising, partial curve]
COc1ccc(OC2C(=O)N(c3cc(C)ccc3C)C2c2ccc(OC)c(OC)c2)cc1 (configuration not stated) |  | 35.5 µM [rising, single point]
OC(COc1cccc2ccccc12)CN1CCN(c2ccccn2)CC1 (configuration not stated) | 15.8 µM [rising, partial curve] | 12.6 µM [rising, partial curve]
COC(=O)Nc1snnc1C |  | 11.2 µM [falling, partial curve]
COc1ccc(/C=N/NC(=O)Cc2csc(Nc3cccc(C(F)(F)F)c3)n2)cc1C | 35.5 µM [falling, single point] | 25.1 µM [falling, partial curve]
CC(C(=O)Nc1ccc(Cl)cc1)c1ncc(C(F)(F)F)cc1Cl (configuration not stated) |  | 12.6 µM [rising, single point]
COc1ccc(S(=O)(=O)N(CC(=O)Nc2ccc(F)c(Cl)c2)c2ccc(C)cc2)cc1OC | 3.98 µM [rising, full curve, poor fit] | 
CCCCCCn1c2c(c(=N)c3c1CCC3)CCC2 |  | 11.2 µM [rising, partial curve, poor fit]
O=C(COc1ccc(Cl)cc1Cl)NCCC1=CCCCC1 | 11.2 µM [rising, partial curve, poor fit] | 14.1 µM [rising, partial curve]
CCN(CC(O)Cn1c2ccccc2c2ccccc21)S(=O)(=O)c1ccc(F)cc1 (configuration not stated) |  | 35.5 µM [rising, single point]
COc1ccc(OC)c(/C=C/C(=O)N2C(=O)c3cccc(N)c3C2=O)c1 | 12.6 µM [rising, single point] | 25.1 µM [rising, single point]
Cc1ccc2c(c1)[nH]c1c(N3CCN(Cc4ccc5c(c4)OCO5)CC3)ncnc12 |  | 2.82 µM [rising, partial curve]

SMILES | AC50 [1] | AC50 [2]
COC(=O)N/N=C/c1c(C)c(C(=O)c2ccc(F)cc2)n2ccccc12 |  | 7.94 µM [rising, single point]
CC(C)(C)c1ccc(C(=O)N2CCN(CCNC(=O)C(=O)NCc3ccccc3)CC2)cc1 | 17.8 µM [rising, single point] | 25.1 µM [rising, single point]
COc1cccc2c1C(=O)c1c(O)c3c(c(O)c1C2=O)C[C@@](O)(C(=O)CO)C[C@@H]3O[C@H]1C[C@H](N)[C@H](O)[C@H](C)O1 | 6.31 µM [falling, full curve] | 
O=C(Nc1cccc(Cn2cccn2)c1)c1cc2c(s1)CCCC2 |  | 15.8 µM [rising, partial curve]
O=C(c1cnn2c1NC(c1ccco1)CC2C(F)(F)F)N1CCN(c2cccc(Cl)c2)CC1 (configuration not stated) | 35.5 µM [falling, single point] | 
O=C(Nc1ccc(OC(F)(F)F)cc1)C1CCN(S(=O)(=O)c2ccc3[nH]c(=O)ccc3c2)CC1 | 0.0224 µM [falling, full curve, poor fit] | 
CN(C)S(=O)(=O)Oc1cccc(C(=O)Nc2ccc(Cl)c(Cl)c2)c1 | 11.2 µM [falling, partial curve, poor fit] | 25.1 µM [falling, partial curve]
Cn1ncc(C#N)c1NC(=O)C1CC(c2c(F)cccc2Cl)=NO1 (configuration not stated) |  | 0.112 µM [rising, full curve, poor fit]
O=C(c1cc2nc(-c3ccco3)cc(C(F)(F)F)n2n1)N1CCN(Cc2ccccc2)CC1 | 25.1 µM [falling, partial curve, poor fit] | 0.126 µM [falling, full curve, poor fit]
O=C(O)CSc1nnc(CNc2ccccc2Cl)n1-c1ccccc1 |  | 5.01 µM [falling, single point]
O=[N+]([O-])c1ccc(CSc2nnc(SCc3ccccc3)s2)cc1 | 14.1 µM [rising, single point] | 25.1 µM [rising, single point]
Cc1cccc(/C=N/Nc2cc(N3CCOCC3)nc(N3CCOCC3)n2)c1 | 35.5 µM [falling, single point] | 35.5 µM [falling, single point]
CC1(CCc2ccccc2)NC(=S)N(c2ccc(Cl)cc2)N1 (configuration not stated) | 10 µM [rising, partial curve, poor fit] | 
O=c1c2ccccc2nc(/C=C/c2ccc(O)cc2)n1CCc1ccccc1 | 7.08 µM [rising, partial curve] | 14.1 µM [rising, partial curve]
O=C(/C=C/c1ccc2c(c1)OCO2)Nc1nc(-c2ccc(F)cc2)cs1 | 1.78 µM [falling, full curve, poor fit] | 2 µM [falling, single point]
COc1cc(Nc2nc(SCc3cccc(Cl)c3)nc3ccccc23)cc(OC)c1 | 3.55 µM [rising, full curve, poor fit] | 3.55 µM [rising, full curve, poor fit]

Filtered by structure: those above with a nitro group on carbon
SMILES | AC50 [1] | AC50 [2]
Cc1cc(CNC(=O)c2ccc(C)c([N+](=O)[O-])c2)c2ccccc2n1 | 0.447 µM [falling, full curve, poor fit] | 
O=[N+]([O-])c1ccc(CSc2nnc(SCc3ccccc3)s2)cc1 | 14.1 µM [rising, single point] | 25.1 µM [rising, single point]
